{"source": "PubChem BioAssay AID2417", "about": "(National Center for Advancing Translational Sciences (NCATS), 2010)", "note": "About 4,300 (3.1%) of roughly 140,000 compounds were called active. Inconclusive means that the source gave no clear call. Such entries were picked first, then a sample of the others.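 Rule for the calls: active = readout at or below -70, meaning at least 70% loss of cells showing the perinucleolar compartment, a nuclear body marking cancer cells; inconclusive = readout between -30 and a set limit; inactive = the rest.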", "data": [{"experiment": "High Content Assay for Compounds that inhibit the Assembly of the Perinucleolar Compartment;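 note: plate controls were DMSO wells for no effect and camptothecin positive control wells for full effect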", "details": "PC3M PTB-GFP, PNC prevalence imaging, 16 h; at 10 µM; stronger effect = lower value", "summary_of_the_method": "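Compounds are pinned in duplicate onto adhered PC3M cells stably expressing GFP-tagged PTB and incubated 16 h at 37 C. Cells are then fixed, nuclei stained with Hoechst, and PNC-positive cells counted.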", "values": [{"smiles": "CC1CCCN(C(=O)C2CCN(CC3CC=CCC3)CC2)C1", "note": "(configuration not stated)", "activity change (PNC), negative = inhibition": "active: -100%"}, {"smiles": "O=S(=O)(CCSc1ccccn1)c1nc2ccccc2s1", "activity change (PNC), negative = inhibition": "inactive: -12.6%"}, {"smiles": "CCOC(=O)n1c(=O)n(Cc2ccc(Cl)c(Cl)c2)c2ccccc21", "activity change (PNC), negative = inhibition": "inconclusive: -59.3%"}, {"smiles": "O=C(C1CCC(CNS(=O)(=O)c2cccs2)CC1)N1CCCCC1", "note": "(configuration not stated)", "activity change (PNC), negative = inhibition": "inconclusive: -33.8%"}, {"smiles": "O=C(OCc1nnc(-c2ccccc2)o1)c1ccc2c(c1)OCCO2", "activity change (PNC), negative = inhibition": "inactive: -6.39%"}, {"smiles": "Cc1c(S(=O)(=O)Nc2cccc(Cl)c2)c(=O)n(C)c(=O)n1C", "activity change (PNC), negative = inhibition": "inconclusive: -48.3%"}, {"smiles": "O=C(N/N=C/c1sc2ccccc2c1O)c1cccc2ccccc12", "activity change (PNC), negative = inhibition": "inconclusive: -51.9%"}, {"smiles": "Cc1cc(C)n(S(=O)(=O)Cc2ccccc2)n1", "activity change (PNC), negative = inhibition": "inconclusive: -36.7%"}, {"smiles": "COc1ccccc1N=c1oc2c(OC)cccc2cc1C(=O)NCc1ccco1", "activity change (PNC), negative = inhibition": "inconclusive: -64.7%"}, {"smiles": "CC12CCC(C(=O)NC(c3ccccc3)c3ccccc3)(OC1=O)C2(C)C", "note": "(configuration not stated)", "activity change (PNC), negative = inhibition": "inconclusive: -78.8%"}, {"smiles": "Cn1nnnc1SCc1cc(=O)[nH]c2ccccc12", "activity change (PNC), negative = inhibition": "inconclusive: -42.3%"}, {"smiles": "Cc1cccc2cc(CN(CCN3CCCC3)C(=O)NC3CCCCC3)c(=O)[nH]c12", "activity change (PNC), negative = inhibition": "inconclusive: -54.7%"}, {"smiles": "O=C(O)C1CSC(c2ccccc2)N1C(=O)c1ccco1", "note": "(configuration not stated)", "activity change (PNC), negative = inhibition": "inconclusive: -45.9%"}, {"smiles": "O=C(C1CCN(c2ccc(N3CCOCC3)nn2)CC1)N1CCc2ccccc2C1", "activity change (PNC), negative = inhibition": "inactive: 7.46%"}, {"smiles": "CCN1C(=O)c2cccc3c(NC(=O)C4CCCCC4)ccc1c23", "activity change (PNC), negative = inhibition": "inconclusive: -56.6%"}, {"smiles": "CC1(C)CC(C)(O)P(=O)(c2ccccc2)O1", "note": "(configuration not stated)", "activity change (PNC), negative = inhibition": "inactive: 4.24%"}, {"smiles": "CCCC(=O)Nc1ccccc1NC(=O)CN(C)S(=O)(=O)c1ccccc1", "activity change (PNC), negative = inhibition": "inconclusive: -76.3%"}, {"smiles": "NC(=O)c1nsc(C(=O)N(CC(=O)NCc2ccc3c(c2)OCO3)C2CCCC2)c1N", "activity change (PNC), negative = inhibition": "inactive: -8.17%"}, {"smiles": "CN1C(=O)/C(=C/c2ccccc2OCc2ccccc2)NC1=S", "activity change (PNC), negative = inhibition": "inconclusive: -57.1%"}, {"smiles": "O=C(CSCC(=O)Nc1cccc([N+](=O)[O-])c1)Nc1ccccc1", "activity change (PNC), negative = inhibition": "inconclusive: -76.7%"}, {"smiles": "Cc1cccc(NC(=O)C2CCCN2S(=O)(=O)c2cccc3cccnc23)c1", "note": "(configuration not stated)", "activity change (PNC), negative = inhibition": "inconclusive: -41.4%"}, {"smiles": "c1ccc2[nH]c(NCCN3CCOCC3)nc2c1", "activity change (PNC), negative = inhibition": "inactive: -1.68%"}, {"smiles": "Cc1ccc(C(=O)COC(=O)CNC(=O)CNC(=O)c2ccc(C)cc2)cc1", "activity change (PNC), negative = inhibition": "inactive: -0.716%"}, {"smiles": "CC(Sc1n[nH]c(N)n1)c1nc2scc(-c3cccs3)c2c(=O)[nH]1", "note": "(configuration not stated)", "activity change (PNC), negative = inhibition": "inactive: -16.9%"}, {"smiles": "N#Cc1c(C(F)(F)F)cc(-c2ccccc2)nc1SCC(=O)Nc1sc2c(c1C#N)CCC2", "activity change (PNC), negative = inhibition": "inactive: 102%"}, {"smiles": "COc1cc(NC(=O)c2ccco2)c(OC)cc1NC(=O)CSc1ncc(-c2ccc(F)cc2)[nH]1", "activity change (PNC), negative = inhibition": "inconclusive: -44%"}, {"smiles": "Cc1ccc(CNC(=O)c2nn(C)c(C)c2[N+](=O)[O-])cc1", "activity change (PNC), negative = inhibition": "inactive: 17.1%"}, {"smiles": "COc1cccc(-c2ccc(=O)n(CC(=O)Nc3ccc(C(=O)N4CCCC4)cc3)n2)c1", "activity change (PNC), negative = inhibition": "inactive: 31.7%"}, {"smiles": "CC(C)Oc1ccc(CNC(=S)N/N=C/c2cccnc2)cc1", "activity change (PNC), negative = inhibition": "inconclusive: -39.6%"}, {"smiles": "CCC(N=c1cc(-c2ccc(OC)cc2)oc2ccc(C)cc12)C(=O)O", "note": "(configuration not stated)", "activity change (PNC), negative = inhibition": "inconclusive: -44.9%"}, {"smiles": "Cc1[nH]c2ccccc2c1Cc1n[nH]c(=S)n1C", "activity change (PNC), negative = inhibition": "inactive: 2.98%"}, {"smiles": "COc1cc(C2C3C(=O)N(Cc4ccccc4)C(=O)C3ON2c2ccccc2)cc(OC)c1O", "note": "(configuration not stated)", "activity change (PNC), negative = inhibition": "inactive: -0.918%"}, {"smiles": "Cc1ccc(CCNc2ccccc2C)cn1", "activity change (PNC), negative = inhibition": "inconclusive: -42.7%"}, {"smiles": "CC1(C)CC(=O)C=C(N2CCN(C3=CC(=O)CC(C)(C)C3)CC2)C1", "activity change (PNC), negative = inhibition": "inconclusive: -34.7%"}, {"smiles": "Cn1c(=N)n(CC(=O)O)c2ccccc21", "activity change (PNC), negative = inhibition": "inactive: 21.6%"}, {"smiles": "O=C(c1cc(-c2ccc(Cl)c(Cl)c2)on1)N1CCN(c2ccccc2)CC1", "activity change (PNC), negative = inhibition": "inactive: -22.8%"}, {"smiles": "O=S(=O)(NCC1CCCO1)c1cnc(Cl)c(Br)c1", "note": "(configuration not stated)", "activity change (PNC), negative = inhibition": "inconclusive: -38.2%"}, {"smiles": "CCOC(=O)c1sc(=S)n(-c2ccc(Cl)cc2)c1C", "activity change (PNC), negative = inhibition": "inconclusive: -45.1%"}, {"smiles": "COc1ccc(CCNC(=O)c2cc(-c3ccc4c(c3)OCO4)on2)cc1OC", "activity change (PNC), negative = inhibition": "inconclusive: -44.4%"}, {"smiles": "CC1(C)Cc2c(C#N)c(SCCC#N)nc(N3CCOCC3)c2CS1", "activity change (PNC), negative = inhibition": "inactive: 74.2%"}, {"smiles": "CC(C)(C)OC(=O)N1CCC(C(=O)N[C@@H](Cc2ccccc2)C(=O)O)CC1", "activity change (PNC), negative = inhibition": "inconclusive: -32.7%"}, {"smiles": "O=C(CSc1ncn(-c2ccccc2)n1)Nc1nc2c(s1)CCCC2", "activity change (PNC), negative = inhibition": "inactive: -21.6%"}, {"smiles": "COc1ccc(CC(=O)NCC(=O)N/N=C/c2ccco2)cc1", "activity change (PNC), negative = inhibition": "inconclusive: -38.8%"}, {"smiles": "CCS(=O)(=O)c1ccc(-c2csc(-c3ccc(Cl)cc3)n2)c(Cl)c1Cl", "activity change (PNC), negative = inhibition": "inconclusive: -59.5%"}, {"smiles": "Cc1ccc(-c2[nH]c3ccccc3c2SCCNC(=O)c2ccc(S(=O)(=O)N3CCOCC3)cc2)cc1", "activity change (PNC), negative = inhibition": "inconclusive: -70.5%"}, {"smiles": "Cc1cc(C(=O)OCC(=O)Nc2nnc(C(C)C)s2)c2ccccc2n1", "activity change (PNC), negative = inhibition": "inactive: 3.82%"}, {"smiles": "CN(C)c1ccc(C(=O)NCC2CCCO2)cc1", "note": "(configuration not stated)", "activity change (PNC), negative = inhibition": "inconclusive: -41.8%"}, {"smiles": "O=C1C2C3CCC(C3)C2C(=O)N1Cc1ccccc1", "note": "(configuration not stated)", "activity change (PNC), negative = inhibition": "inactive: 43.9%"}, {"smiles": "Cc1nn(-c2nc3ccccc3s2)c(N)c1-c1ccccc1", "activity change (PNC), negative = inhibition": "inconclusive: -55.9%"}, {"smiles": "O=C(Cc1cc(=O)[nH][nH]1)N/N=C/C=C/c1ccccc1", "activity change (PNC), negative = inhibition": "inconclusive: -55.5%"}, {"smiles": "O=C(c1ccco1)N1CCN(C2CC(=O)N(c3ccccc3)C2=O)CC1", "note": "(configuration not stated)", "activity change (PNC), negative = inhibition": "inactive: -21.7%"}, {"smiles": "COc1cc(OC)nc(NC(=O)CN2CCN(c3ccc(F)cc3)CC2)n1", "activity change (PNC), negative = inhibition": "inactive: -23.5%"}, {"smiles": "O=C(CCC(=O)N(CC(=O)NC1CCCC1)Cc1ccc2c(c1)OCO2)Nc1ccccn1", "activity change (PNC), negative = inhibition": "active: -94%"}, {"smiles": "CCN(C(=O)C1CCN(S(=O)(=O)c2ccc3c(c2)oc(=O)n3C)CC1)c1cccc(C)c1", "activity change (PNC), negative = inhibition": "inconclusive: -43.8%"}, {"smiles": "O=C(Nc1cccc(F)c1)c1ccc2c(c1)OCO2", "activity change (PNC), negative = inhibition": "inconclusive: -44.4%"}, {"smiles": "COc1cc(-c2nc(-c3ccccc3)c(-c3cccs3)[nH]2)cc(OC)c1O", "activity change (PNC), negative = inhibition": "inactive: 1.63%"}, {"smiles": "Cn1c(=O)[nH]c(=O)c2c1nc(N1CCCCCC1)n2CC(N)=O", "activity change (PNC), negative = inhibition": "inactive: -18.8%"}]}]}
